From the supplement of paper PMC10849652
Some of the results follow.

Protein sequences, listed by entry. Tags and fused reporters are not part of them. Lines headed by an entry give the natural chain unless they say otherwise; changes in a name come on top.
UniProt P53778: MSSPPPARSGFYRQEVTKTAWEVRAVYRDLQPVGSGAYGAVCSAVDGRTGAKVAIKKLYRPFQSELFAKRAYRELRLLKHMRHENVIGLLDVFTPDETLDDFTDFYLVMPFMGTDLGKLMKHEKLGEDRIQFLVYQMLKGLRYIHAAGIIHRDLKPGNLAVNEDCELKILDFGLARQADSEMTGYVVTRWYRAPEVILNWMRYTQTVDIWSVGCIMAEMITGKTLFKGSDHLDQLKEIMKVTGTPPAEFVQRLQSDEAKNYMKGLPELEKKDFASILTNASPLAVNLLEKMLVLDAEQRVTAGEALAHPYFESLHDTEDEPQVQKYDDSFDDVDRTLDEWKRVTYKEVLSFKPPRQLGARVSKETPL
UniProt Q9Y4F3: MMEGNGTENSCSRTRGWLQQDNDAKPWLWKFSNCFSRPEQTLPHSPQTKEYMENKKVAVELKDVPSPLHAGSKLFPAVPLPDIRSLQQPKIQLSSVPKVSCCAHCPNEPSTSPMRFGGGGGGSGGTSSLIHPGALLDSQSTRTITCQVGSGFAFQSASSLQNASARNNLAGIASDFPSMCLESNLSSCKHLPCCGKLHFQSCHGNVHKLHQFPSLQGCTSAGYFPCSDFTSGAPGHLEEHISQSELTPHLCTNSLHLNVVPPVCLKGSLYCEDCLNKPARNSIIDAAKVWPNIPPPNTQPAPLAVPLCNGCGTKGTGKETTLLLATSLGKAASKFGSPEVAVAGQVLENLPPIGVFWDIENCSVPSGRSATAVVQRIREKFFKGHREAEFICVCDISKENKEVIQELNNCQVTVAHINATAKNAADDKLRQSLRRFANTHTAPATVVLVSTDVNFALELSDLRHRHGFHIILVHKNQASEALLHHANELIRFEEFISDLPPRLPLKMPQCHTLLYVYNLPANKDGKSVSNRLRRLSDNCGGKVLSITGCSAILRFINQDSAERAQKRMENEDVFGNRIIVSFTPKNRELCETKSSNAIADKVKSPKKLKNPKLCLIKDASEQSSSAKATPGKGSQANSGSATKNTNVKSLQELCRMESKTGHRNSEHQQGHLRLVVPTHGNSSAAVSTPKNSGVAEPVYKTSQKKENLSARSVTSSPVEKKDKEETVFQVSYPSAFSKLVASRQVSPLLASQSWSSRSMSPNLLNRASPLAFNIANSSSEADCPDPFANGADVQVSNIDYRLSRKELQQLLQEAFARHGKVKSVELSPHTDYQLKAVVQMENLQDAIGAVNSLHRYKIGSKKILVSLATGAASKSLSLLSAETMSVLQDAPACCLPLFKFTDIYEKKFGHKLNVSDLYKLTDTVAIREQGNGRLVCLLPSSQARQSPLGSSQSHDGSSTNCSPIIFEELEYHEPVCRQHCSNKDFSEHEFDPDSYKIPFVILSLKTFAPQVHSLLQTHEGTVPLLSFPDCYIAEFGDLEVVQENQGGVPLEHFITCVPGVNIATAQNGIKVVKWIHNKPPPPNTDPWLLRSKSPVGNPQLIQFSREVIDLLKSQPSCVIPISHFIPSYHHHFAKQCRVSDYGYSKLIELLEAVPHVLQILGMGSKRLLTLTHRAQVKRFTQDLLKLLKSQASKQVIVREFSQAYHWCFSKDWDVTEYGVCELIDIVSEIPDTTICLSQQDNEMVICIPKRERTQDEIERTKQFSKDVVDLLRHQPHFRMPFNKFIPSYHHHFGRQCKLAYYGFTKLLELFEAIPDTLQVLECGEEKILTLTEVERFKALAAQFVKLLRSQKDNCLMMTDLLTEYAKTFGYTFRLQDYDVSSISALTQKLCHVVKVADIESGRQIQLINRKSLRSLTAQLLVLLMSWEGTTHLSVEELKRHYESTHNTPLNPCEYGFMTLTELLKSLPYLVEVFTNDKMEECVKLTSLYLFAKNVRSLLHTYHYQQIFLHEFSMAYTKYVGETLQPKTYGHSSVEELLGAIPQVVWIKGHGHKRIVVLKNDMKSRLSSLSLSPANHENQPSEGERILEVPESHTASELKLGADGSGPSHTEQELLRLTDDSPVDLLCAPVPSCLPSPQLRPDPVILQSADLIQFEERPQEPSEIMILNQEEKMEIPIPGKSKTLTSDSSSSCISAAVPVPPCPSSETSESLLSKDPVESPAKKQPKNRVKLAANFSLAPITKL
UniProt Q92585: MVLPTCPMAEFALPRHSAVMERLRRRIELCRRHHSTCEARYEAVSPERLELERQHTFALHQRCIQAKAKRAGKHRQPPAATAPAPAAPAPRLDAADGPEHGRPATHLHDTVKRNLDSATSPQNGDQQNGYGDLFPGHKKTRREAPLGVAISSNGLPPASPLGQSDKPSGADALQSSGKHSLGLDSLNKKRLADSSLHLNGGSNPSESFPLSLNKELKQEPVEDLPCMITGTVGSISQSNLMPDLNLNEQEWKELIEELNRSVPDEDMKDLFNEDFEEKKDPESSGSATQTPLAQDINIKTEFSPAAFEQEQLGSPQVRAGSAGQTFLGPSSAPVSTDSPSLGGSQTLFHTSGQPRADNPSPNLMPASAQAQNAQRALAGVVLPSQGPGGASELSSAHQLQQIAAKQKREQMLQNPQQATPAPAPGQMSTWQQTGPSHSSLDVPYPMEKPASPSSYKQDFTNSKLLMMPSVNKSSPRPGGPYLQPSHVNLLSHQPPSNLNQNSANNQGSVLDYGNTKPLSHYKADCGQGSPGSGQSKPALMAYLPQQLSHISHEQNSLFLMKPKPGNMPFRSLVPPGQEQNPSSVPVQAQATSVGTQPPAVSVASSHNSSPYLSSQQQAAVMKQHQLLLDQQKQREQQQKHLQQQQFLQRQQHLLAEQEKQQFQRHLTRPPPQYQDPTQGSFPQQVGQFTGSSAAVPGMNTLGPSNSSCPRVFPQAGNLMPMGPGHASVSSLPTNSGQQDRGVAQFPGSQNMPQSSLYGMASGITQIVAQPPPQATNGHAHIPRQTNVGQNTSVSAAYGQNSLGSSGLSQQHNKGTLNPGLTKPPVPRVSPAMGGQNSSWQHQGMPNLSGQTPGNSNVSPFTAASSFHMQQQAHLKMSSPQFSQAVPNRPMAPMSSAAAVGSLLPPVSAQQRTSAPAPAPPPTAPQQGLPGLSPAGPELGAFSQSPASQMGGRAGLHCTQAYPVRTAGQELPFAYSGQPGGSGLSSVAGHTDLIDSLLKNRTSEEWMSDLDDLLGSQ
UniProt O95382: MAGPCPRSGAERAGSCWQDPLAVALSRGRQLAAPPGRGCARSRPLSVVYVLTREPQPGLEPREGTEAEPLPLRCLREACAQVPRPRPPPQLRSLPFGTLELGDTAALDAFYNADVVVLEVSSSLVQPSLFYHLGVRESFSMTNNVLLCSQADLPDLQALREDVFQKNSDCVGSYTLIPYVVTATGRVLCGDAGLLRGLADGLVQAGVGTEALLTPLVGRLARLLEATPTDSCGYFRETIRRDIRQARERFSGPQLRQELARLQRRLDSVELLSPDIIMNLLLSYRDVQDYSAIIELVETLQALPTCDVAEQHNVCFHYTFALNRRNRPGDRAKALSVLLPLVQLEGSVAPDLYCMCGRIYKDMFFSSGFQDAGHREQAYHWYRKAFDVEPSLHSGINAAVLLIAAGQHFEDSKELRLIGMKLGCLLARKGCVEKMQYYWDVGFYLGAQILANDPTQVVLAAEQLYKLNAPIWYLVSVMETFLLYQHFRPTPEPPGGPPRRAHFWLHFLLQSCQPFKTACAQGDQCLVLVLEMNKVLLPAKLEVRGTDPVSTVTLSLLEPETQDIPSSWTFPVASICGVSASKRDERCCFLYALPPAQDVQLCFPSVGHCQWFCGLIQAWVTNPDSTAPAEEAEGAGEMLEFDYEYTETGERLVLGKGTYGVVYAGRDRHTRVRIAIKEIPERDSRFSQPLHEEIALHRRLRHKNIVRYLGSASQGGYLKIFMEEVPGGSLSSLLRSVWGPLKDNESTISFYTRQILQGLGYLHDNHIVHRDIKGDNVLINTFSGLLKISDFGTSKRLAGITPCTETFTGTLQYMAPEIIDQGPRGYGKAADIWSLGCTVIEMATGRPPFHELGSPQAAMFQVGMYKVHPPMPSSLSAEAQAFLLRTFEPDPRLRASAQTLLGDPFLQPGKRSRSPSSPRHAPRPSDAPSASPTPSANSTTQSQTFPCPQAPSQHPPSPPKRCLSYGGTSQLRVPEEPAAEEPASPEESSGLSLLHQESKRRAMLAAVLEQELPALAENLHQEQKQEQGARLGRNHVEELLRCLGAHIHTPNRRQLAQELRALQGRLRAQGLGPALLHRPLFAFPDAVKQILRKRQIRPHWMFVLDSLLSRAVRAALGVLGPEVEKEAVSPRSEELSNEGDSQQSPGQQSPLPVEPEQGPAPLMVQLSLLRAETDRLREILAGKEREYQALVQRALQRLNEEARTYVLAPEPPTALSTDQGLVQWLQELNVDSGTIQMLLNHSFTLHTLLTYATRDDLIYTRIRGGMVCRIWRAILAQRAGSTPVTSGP
UniProt Q14210: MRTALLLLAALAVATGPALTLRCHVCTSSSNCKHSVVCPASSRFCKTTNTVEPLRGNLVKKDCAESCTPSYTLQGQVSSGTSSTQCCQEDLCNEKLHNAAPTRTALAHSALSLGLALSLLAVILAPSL
UniProt Q9HAY2: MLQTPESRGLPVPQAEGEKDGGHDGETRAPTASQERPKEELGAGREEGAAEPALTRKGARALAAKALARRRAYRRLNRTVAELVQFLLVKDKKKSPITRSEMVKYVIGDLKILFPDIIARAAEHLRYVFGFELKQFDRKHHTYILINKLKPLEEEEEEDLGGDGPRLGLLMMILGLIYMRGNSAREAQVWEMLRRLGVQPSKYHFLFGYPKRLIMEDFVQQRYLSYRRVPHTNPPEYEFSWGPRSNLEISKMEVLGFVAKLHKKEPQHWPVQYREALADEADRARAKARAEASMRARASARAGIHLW
UniProt Q9H992: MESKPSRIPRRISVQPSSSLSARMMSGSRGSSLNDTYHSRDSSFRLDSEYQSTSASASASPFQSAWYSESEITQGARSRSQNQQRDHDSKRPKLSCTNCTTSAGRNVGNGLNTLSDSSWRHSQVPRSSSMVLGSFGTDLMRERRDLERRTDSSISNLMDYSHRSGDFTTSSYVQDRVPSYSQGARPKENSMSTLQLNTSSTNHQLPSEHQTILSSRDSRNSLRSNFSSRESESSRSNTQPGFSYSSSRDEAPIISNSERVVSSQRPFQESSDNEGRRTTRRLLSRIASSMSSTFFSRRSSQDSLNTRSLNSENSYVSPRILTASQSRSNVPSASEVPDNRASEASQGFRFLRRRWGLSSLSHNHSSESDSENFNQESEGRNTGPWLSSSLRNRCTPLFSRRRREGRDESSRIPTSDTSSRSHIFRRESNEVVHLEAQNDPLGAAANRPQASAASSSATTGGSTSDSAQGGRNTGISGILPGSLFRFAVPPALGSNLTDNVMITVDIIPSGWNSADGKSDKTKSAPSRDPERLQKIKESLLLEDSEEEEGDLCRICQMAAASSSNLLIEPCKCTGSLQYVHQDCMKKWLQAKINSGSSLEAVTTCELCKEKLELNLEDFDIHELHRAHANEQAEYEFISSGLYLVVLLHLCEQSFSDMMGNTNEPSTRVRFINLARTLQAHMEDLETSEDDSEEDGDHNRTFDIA
UniProt O43325: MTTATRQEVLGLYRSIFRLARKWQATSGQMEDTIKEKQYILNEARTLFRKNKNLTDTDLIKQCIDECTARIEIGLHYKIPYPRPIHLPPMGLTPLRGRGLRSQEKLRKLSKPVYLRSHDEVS
UniProt Q8IVH8: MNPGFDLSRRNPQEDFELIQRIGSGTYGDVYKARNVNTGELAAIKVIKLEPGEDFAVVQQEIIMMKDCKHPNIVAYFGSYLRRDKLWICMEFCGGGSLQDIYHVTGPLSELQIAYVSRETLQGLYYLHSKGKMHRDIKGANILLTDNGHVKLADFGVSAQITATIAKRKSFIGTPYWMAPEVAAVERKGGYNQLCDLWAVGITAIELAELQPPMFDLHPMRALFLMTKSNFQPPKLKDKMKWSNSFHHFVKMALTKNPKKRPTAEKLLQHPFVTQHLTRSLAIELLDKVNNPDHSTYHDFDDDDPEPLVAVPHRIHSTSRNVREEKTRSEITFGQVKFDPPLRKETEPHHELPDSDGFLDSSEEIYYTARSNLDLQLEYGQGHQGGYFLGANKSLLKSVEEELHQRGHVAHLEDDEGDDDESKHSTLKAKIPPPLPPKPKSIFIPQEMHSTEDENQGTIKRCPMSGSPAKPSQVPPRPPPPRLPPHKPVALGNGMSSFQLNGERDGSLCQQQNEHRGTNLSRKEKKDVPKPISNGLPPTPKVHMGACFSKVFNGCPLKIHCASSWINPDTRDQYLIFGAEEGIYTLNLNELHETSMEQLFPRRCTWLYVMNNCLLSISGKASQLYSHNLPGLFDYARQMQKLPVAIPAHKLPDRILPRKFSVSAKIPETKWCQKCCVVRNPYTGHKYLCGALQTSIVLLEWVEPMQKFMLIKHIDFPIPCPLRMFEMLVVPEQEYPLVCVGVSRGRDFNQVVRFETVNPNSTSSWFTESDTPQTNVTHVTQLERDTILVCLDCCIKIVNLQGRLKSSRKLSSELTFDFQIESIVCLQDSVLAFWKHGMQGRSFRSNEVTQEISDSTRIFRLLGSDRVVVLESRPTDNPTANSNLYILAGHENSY

compound: Cc1ncc(-c2ccnc(Nc3ccc(S(C)(=O)=O)cc3)n2)n1C(C)C; assay: log2 fold change, soluble protein after heating vs DMSO (PISA); higher = thermal stabilisation; K562 lysate, 10 uM; active = over 0.2 and 3.5 SD of the protein, either way, in both replicates (recomputed)
Outline: (§1)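 Pellets of K562 cells were dounce-homogenised in PBS pH 7.4 with 1 mM MgCl2, and the crude extract was held at 1 mg/mL protein for a 30 min treatment with 10 μM compound. Aliquots were heated for 3 min over 48°C-58°C and pooled before NP-40 was added to 0.5% at 4°C. The supernatant from 21,000xg for 90 min was quantified by TMTpro 16plex LC-MS/MS with channel sums equalised. Values are reported from duplicates as log-two fold change in thermal stability relative to solvent controls.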

Row | Target | log2 fold change
1 | MAPK12 (UniProt P53778) | inactive: 0.085
2 | MAP3K3 isoform 2 (UniProt Q99759) | inactive: -0.016
3 | MAPK3 (UniProt H0YEX6) | inactive: 0.12
4 | MARF1 (UniProt Q9Y4F3) | inactive: 0.031
5 | MAML1 (UniProt Q92585) | inactive: -0.109
6 | MACF1, A0A0A6YYJ5 | inactive: -0.232
7 | MAP3K6 (UniProt O95382) | inactive: 0.006
8 | LYN isoform 2 (UniProt P07948) | inactive: 0.257
9 | MAP3K1 (UniProt Q13233) | inactive: 0.076
10 | MAPK15 (UniProt Q8TD08) | inactive: 0.479
11 | MAPKAP1 (UniProt Q9BPZ7) | inactive: 0.083
12 | LTBP1 isoform 4 (UniProt Q14766) | inactive: 0.248
13 | LTO1 (UniProt Q8WV07) | inactive: 0.194

compound: Cn1cc(-c2ccc3c(c2)CCN3C(=O)Cc2cccc(C(F)(F)F)c2)c2c(N)ncnc21; assay: as above
Outline: as §1

Row | Target | log2 fold change
14 | LY6D (UniProt Q14210) | inactive: -0.359
15 | MAGEF1 (UniProt Q9HAY2) | inactive: -0.041
16 | MAPK12 (UniProt P53778) | active: 0.375
17 | MAP3K3 isoform 2 (UniProt Q99759) | inactive: -0.064
18 | MARF1 (UniProt Q9Y4F3) | inactive: -0.03
19 | MAML1 (UniProt Q92585) | inactive: 0
20 | MARCHF7 (UniProt Q9H992) | inactive: 0.055
21 | MACF1, A0A0A6YYJ5 | inactive: 0.004
22 | LYN isoform 2 (UniProt P07948) | inactive: 0.061
23 | LYRM1 (UniProt O43325) | inactive: -0.061
24 | MARVELD1 (UniProt Q9BSK0) | inactive: -0.138
25 | MAGI1 (UniProt H7C4S7) | inactive: 0.095
26 | MAOA (UniProt P21397) | inactive: 0.055
27 | MAP3K2 (UniProt Q9Y2U5) | inactive: -0.079
28 | MAPK15 (UniProt Q8TD08) | inactive: -0.03
29 | MAP3K8 (UniProt P41279) | inactive: 0.118
30 | MAPKAP1 (UniProt Q9BPZ7) | inactive: -0.003
31 | MAP4K3 (UniProt Q8IVH8) | inactive: -0.774
32 | LTBP1 isoform 4 (UniProt Q14766) | inactive: -0.005
33 | LTO1 (UniProt Q8WV07) | inactive: -0.102
34 | MAGEA2 (UniProt P43356) | inactive: 0.164
